Laboratory results as given in patent US20220403023A1.
Results are given in words; binding and its absence hold for the method and conditions named. Some results given as binding are weak or reduced against the parent protein; the word gives no strength.

Molecular target: cynomolgus monkey CD47 on engineered CHO-K1 cells (cynomolgus monkey)
Assay: FACS on engineered CD47-expressing cells

- binding: binds
B1: W3455-4.9.9-uIgG4.SPL (antibody, V domains shown)
VH: EVQLLESGGGLVQPGGSLRLSCAASGFTFSNFAMSWVRQAPGKGLEWVSTISASGGRTFYADSVKGRITISRDNSKNTLFLQMNGLRAEDTAVYYCAKEGSFGEGVDPWGQGTLVTVSS
VL: SYEMTQPPSVSVSPGQTARITCSGDALPKKYAYWYQQKSGQAPVLVIYEDNKRPSGIPERFSGSSSGTMATLTISGAQVEDEADYYCYSTDISGNHWVFGGGTELTVLG
